PubChem BioAssay AID743121 – NCATS | 2013
Assay: 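Genes whose silencing strengthens cell killing by camptothecin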 (primary screen). Cells: MDA-MB-231 cells, a human breast cancer line. Reagents: single siRNA against human genes, 20 nM siRNA (0.8 pmol per well). Time to read-out: 120 h (drug added 48 h after transfection, read 72 h later). Treatment: camptothecin 20 nM (about EC30) for 72 h; vehicle 0.1% DMSO in parallel plates. Measured: 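CellTiter-Glo ATP signal, scaled to control siRNA as percent viability; sensitisation given as log2 of untreated divided by camptothecin-treated viability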. Reading the numbers: log2 vehicle/camptothecin viability: higher = stronger sensitisation to camptothecin; viability with camptothecin: higher = more viable cells. Rule for the call: 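Each gene scored by redundant siRNA activity (RSA) over its individual siRNA ratios; a gene is called active at p < 0.001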.
Shown is one part, drawn at random, of about 26,000 reagents. 167 of all reagents (0.63%) were called active. 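Calls are per gene from RSA p-values that are not deposited; an individual active-marked siRNA can sensitise only weakly.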 Reagents against one gene are numbered here. Further read-outs or replicates are left out here.

gene | siRNA no. | log2 vehicle/camptothecin viability | viability with camptothecin (% of control) | outcome
NRBP1 | 1 | -0.541 | 70.2 | inactive
NRBP1 | 2 | -0.217 | 48.9 | inactive
NRBP1 | 3 | 0.323 | 41.3 | inactive
NRBP1 | 4 | -0.0938 | 7.02 | inactive
AKT1 | 1 | 0.00788 | 38 | inactive
AKT1 | 2 | 0.276 | 38.6 | inactive
AKT1 | 3 | 0.192 | 74.8 | inactive
AKT1 | 4 | -0.256 | 92.5 | inactive
HOMER2 | 1 | -0.156 | 101 | inactive
HOMER2 | 2 | -0.383 | 80 | inactive
HOMER2 | 3 | -0.0593 | 89.1 | inactive
HOMER2 | 4 | -0.609 | 100 | inactive
TRIM62 | 1 | -0.461 | 86.9 | inactive
TRIM62 | 2 | 0.341 | 17.6 | inactive
TRIM62 | 3 | -0.333 | 54.6 | inactive
CTDP1 | 1 | -0.261 | 68.6 | inactive
CTDP1 | 2 | -0.075 | 52.4 | inactive
CTDP1 | 3 | -0.177 | 11.7 | inactive
CTDP1 | 4 | 0.0188 | 31.5 | inactive
SPRY2 | 1 | -0.652 | 43.2 | inactive
SPRY2 | 2 | -0.403 | 67.2 | inactive
SPRY2 | 3 | -0.0732 | 57.3 | inactive
SPRY2 | 4 | 0.0504 | 70.4 | inactive
PEX10 | 1 | 0.00551 | 103 | inactive
PEX10 | 2 | 0.0242 | 102 | inactive
PEX10 | 3 | -0.127 | 86.9 | inactive
PEX10 | 4 | -0.232 | 92.7 | inactive
IL10RB | 1 | -0.25 | 80.9 | inactive
IL10RB | 2 | -0.297 | 130 | inactive
IL10RB | 3 | 0.135 | 74.7 | inactive
IL10RB | 4 | -0.0694 | 65.9 | inactive
TNFSF15 | 1 | -0.207 | 87.6 | inactive
TNFSF15 | 2 | -0.0673 | 85.2 | inactive
TNFSF15 | 3 | -0.213 | 71.2 | inactive
TNFSF15 | 4 | -0.117 | 83.7 | inactive
PRB3 | 1 | -0.548 | 85.9 | inactive
PRB3 | 2 | -0.299 | 63.6 | inactive
PRB3 | 3 | -0.462 | 70.1 | inactive
PRB3 | 4 | 0.00107 | 75.8 | inactive
KCNH3 | 1 | 0.147 | 86.3 | inactive
KCNH3 | 2 | 0.0107 | 72.1 | inactive
KCNH3 | 3 | 0.523 | 42.4 | inactive
KCNH3 | 4 | -0.26 | 47 | inactive

Entries listed so far whose gene name starts with P or p:
gene | siRNA no. | log2 vehicle/camptothecin viability | viability with camptothecin (% of control) | outcome
PEX10 | 1 | 0.00551 | 103 | inactive
PEX10 | 2 | 0.0242 | 102 | inactive
PEX10 | 3 | -0.127 | 86.9 | inactive
PEX10 | 4 | -0.232 | 92.7 | inactive
PRB3 | 1 | -0.548 | 85.9 | inactive
PRB3 | 2 | -0.299 | 63.6 | inactive
PRB3 | 3 | -0.462 | 70.1 | inactive
PRB3 | 4 | 0.00107 | 75.8 | inactive

Continued.
gene | siRNA no. | log2 vehicle/camptothecin viability | viability with camptothecin (% of control) | outcome
ALDH8A1 | 1 | -0.0358 | 105 | inactive
ALDH8A1 | 2 | 1.16 | 22.4 | inactive
ALDH8A1 | 3 | 0.356 | 58.4 | inactive
ALDH8A1 | 4 | -0.443 | 70.5 | inactive
SLC9D1 | 1 | -0.188 | 99.1 | inactive
SLC9D1 | 2 | -0.465 | 40.5 | inactive
SLC9D1 | 3 | -0.243 | 64.4 | inactive
USP38 | 1 | 0.391 | 44.8 | inactive
USP38 | 2 | 0.0816 | 89.8 | inactive
USP38 | 3 | -0.163 | 49.6 | inactive
USP38 | 4 | -0.522 | 66.6 | inactive
DHRS13 | 1 | 0.177 | 81.5 | inactive
DHRS13 | 2 | 0.179 | 26.2 | inactive
DHRS13 | 3 | -0.325 | 118 | inactive
DHRS13 | 4 | 0.121 | 70.9 | inactive
GUCY2C | 1 | -0.708 | 89 | inactive
GUCY2C | 2 | -0.248 | 62.4 | inactive
GUCY2C | 3 | 0.0395 | 49.3 | inactive
GUCY2C | 4 | -0.39 | 58.6 | inactive
GUCY2C | 5 | -0.117 | 120 | inactive
ADGRG5 | 1 | -0.466 | 84.9 | inactive
ADGRG5 | 2 | -0.131 | 92.8 | inactive
ADGRG5 | 3 | -0.129 | 108 | inactive
ADGRG5 | 4 | 0.767 | 34.9 | inactive
SRF | 1 | -0.264 | 71.9 | inactive
SRF | 2 | 0 | 57.8 | inactive
SRF | 3 | -0.224 | 54.7 | inactive
